This passage reports binding results from paper PMC9438028.

These are yes or no findings as the source states them, for the method shown. In cells and extracts the contact can be indirect. Binding can be weak; no strength is given.

In assay [1] the target is HA tagged LvSTING (Litopenaeus vannamei stimulator of interferon genes) (Litopenaeus vannamei). The assay can be described thus: co-IP; Drosophila S2 cells co-transfected with two plasmids (LvRelish-V5 or LvIKKβ-FLAG with LvSTING-HA or GFP-HA), lysed 48 h after transfection in IP lysis buffer; anti-HA or anti-V5 agarose affinity gel; western blot with anti-FLAG, anti-V5, anti-HA.

For assay [2], the target named is V5 tagged LvRelish (Litopenaeus vannamei) (UniProt B1NA65). The experiment in a line: co-IP; S2 cells co-expressing FLAG-LvIKKβ and V5-LvRelish with or without HA-LvSTING; LvIKKβ co-immunoprecipitated with V5-LvRelish; less LvIKKβ without LvSTING.

Turning to “FLAG-tagged LvIKKβ (from UniProt G5CJV9) (enzyme)”, the binding result in assay [1] and in assay [2] was “binds” throughout. “V5 tagged LvRelish (from UniProt B1NA65)”: in assay [1], the binding result is on record as “binds”.
